Measured values reported in paper doi:10.64898/2025.12.13.694125.
No constants are given. Whether binding was seen depends on the method and setting. Binding seen in cells or lysates may run through a third protein. Some binding calls cover weakened binding; strength is not graded here.

Sequences of proteins named here, by UniProt entry; tags and fusion partners are left off. Residues count along the entry.
UniProt Q03265, residues 44-553: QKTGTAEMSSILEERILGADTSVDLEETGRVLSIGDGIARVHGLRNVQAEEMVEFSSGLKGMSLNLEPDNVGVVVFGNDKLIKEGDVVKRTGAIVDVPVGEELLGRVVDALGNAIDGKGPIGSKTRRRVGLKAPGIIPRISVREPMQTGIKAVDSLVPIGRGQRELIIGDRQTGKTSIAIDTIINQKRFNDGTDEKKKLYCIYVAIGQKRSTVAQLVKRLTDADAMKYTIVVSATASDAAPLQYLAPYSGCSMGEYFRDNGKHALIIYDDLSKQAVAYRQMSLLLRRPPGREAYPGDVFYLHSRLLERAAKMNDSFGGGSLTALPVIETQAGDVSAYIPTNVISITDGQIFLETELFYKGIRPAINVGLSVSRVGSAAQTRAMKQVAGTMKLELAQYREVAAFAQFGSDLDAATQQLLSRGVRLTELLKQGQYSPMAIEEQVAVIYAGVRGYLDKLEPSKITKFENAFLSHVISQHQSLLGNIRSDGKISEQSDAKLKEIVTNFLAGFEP
UniProt P56480, residues 47-529: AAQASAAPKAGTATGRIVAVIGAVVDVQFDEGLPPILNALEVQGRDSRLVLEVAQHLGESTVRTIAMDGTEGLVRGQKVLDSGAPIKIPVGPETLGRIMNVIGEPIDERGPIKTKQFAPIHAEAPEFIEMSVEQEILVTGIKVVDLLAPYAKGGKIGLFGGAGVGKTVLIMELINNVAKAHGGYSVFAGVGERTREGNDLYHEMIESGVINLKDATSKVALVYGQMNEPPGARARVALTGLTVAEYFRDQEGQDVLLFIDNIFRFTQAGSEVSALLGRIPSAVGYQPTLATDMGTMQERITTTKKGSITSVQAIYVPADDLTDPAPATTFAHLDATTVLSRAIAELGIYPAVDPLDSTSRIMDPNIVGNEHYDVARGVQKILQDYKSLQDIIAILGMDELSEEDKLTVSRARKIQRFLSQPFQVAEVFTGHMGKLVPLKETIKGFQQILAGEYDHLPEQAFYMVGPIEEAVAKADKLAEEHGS
UniProt Q99KR7, residues 30-206: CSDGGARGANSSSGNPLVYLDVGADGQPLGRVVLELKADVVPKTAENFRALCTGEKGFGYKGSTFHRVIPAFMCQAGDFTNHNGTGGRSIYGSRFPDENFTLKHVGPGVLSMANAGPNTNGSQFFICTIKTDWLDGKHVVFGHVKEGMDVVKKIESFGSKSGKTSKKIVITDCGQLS

How the values were obtained:
Experiment in all cases: cross-linking
[1] = biological target: ATP synthase F1 catalytic head α subunit (ATPA) (mouse (endogenous in heart mitochondria)) (UniProt Q03265)
[2] = biological target: ATP synthase F1 catalytic head β subunit (ATPB) (mouse (endogenous in heart mitochondria)) (UniProt P56480)
[3] = biological target: T1, peripheral stalk subunit ATP5J (mouse (endogenous in heart mitochondria)) (UniProt P97450)
T1 sequence: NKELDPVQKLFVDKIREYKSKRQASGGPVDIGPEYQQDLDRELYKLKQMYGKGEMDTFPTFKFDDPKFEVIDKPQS

Row | Substance | binding [1] | binding [2] | binding [3]
1 | PPIF (Cyclophilin D) (from UniProt Q99KR7 30-206) (enzyme) | binds | binds | –
2 | ATP synthase F1 catalytic head β subunit (ATPB) (from UniProt P56480 47-529) | – | – | binds
